Here are results for one compound from article PMC12056667 (Chemical Science, 2025).

Protein sequences, listed by entry. Tags and fused reporters are not part of them.
UniProt A0A3T0V9Y5, entry or part of it: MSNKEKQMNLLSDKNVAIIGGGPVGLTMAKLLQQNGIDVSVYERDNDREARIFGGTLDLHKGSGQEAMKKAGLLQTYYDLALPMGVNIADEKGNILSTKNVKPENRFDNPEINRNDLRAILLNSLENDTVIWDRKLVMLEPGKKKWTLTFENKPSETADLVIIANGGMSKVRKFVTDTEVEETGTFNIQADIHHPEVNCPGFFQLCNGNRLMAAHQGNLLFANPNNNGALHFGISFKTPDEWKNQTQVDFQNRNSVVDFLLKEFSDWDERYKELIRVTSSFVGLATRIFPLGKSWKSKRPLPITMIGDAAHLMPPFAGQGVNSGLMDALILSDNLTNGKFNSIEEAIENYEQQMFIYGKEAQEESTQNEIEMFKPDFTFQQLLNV

Assay [1] has as its target T1, Tet(X4) (Escherichia coli, UniProt A0A3T0V9Y5). In words: FP competitive displacement of probe 6. Format: binding. The note with it: IC50app, Tet(X4) (Polarization), 25 nM 6, 40 nM Tet(X4), 5 mM MgCl2, 1 μM FAD, 100 mM Tris pH 7.0, 0.01% Triton X-100. The method, then:
A 2× solution containing 80 nM Tet(X4), 2 μM FAD and 10 mM MgCl2 in the assay buffer was dispensed into the first 22 columns of a 384-well black, non-binding microtiter plate (Greiner Bio-One), 12.5 μL per well, using a microplate reagent dispenser. A solution of 2 μM FAD and 10 mM MgCl2 in the assay buffer was dispensed into the remaining columns to serve as a no enzyme control. A 3-fold, 10-point dilution series of substrates and inhibitors was made in DMSO in a V-bottom 96-well plate (Greiner Bio-One) with a highest concentration of 5 mM or 0.5 mM. Into one column was added DMSO with no inhibitor or substrate, to serve as a positive control. Tigecycline was included as a reference on every plate to ensure reproducibility. […] Normalised % response was plotted as a function of log10([Inhibitor]), and the IC50^app was determined by fitting the data to the equation: Y = Bottom + (top-bottom)/(1 + 10^Log(IC50) − X) × HillSlope in GraphPad Prism 9.4.1, where Y = % response and X = log10([Inhibitor]). Wells with unusual fluorescence intensities were manually identified and removed from the analysis.
[…] One technical replicate was performed for each compound; hits identified were retested; the purities of the hit compounds were determined to be >80% by LC-MS analysis.

Assay [2] concerns the target T1, Tet(X4). In words: biochemical. The note with it: IC50, UPLC assay. The text has this: We then tested the binding of reported type 1 TDase inhibitors to Tet(X4) (Fig. 3f, ESI Fig. S17 ^†).[33,38,39] […] These compounds gave similar apparent IC50^app values, in accord with trends in IC50 measurements performed by Markley et al.[33] […] We also developed a complementary endpoint activity assay where the turnover of tigecycline by Tet(X4) in a 96-well plate was quenched by addition of 1%v/v formic acid and analysed chromatographically. The peak integrals of tigecycline and its hydroxylated degradation product at 254 nm following UPLC analysis were measured to determine turnover (Fig. 5a). As this method separates components by chromatography, it enables IC50 measurements independent of potential interference from UV-active inhibitors (Fig. 5b). […]
[…] Samples were analysed using an ACQUITY H-Class PLUS UPLC instrument (Waters) equipped with a pre-equilibrated ACQUITY BEH C18 column ([…], […], Waters) using a gradient of 1–50%v/v acetonitrile with 0.1%v/v formic acid in water with 0.1%v/v formic acid over 1.83 minutes at a flow rate of 0.5 mL min^−1. […] The normalised % response was plotted as a function of log10[Inhibitor], and the IC50 determined as described above.

`CN1CCN(CCCN2c3ccccc3Sc3ccc(Cl)cc32)CC1` [Prochlorperazine]: the IC50 amounted to 39.9 ± 7 µM at Tet(X4) [1] and 49.5 ± 24.9 µM at Tet(X4) [2].
